# Laboratory results reported in PubChem BioAssay AID1671190 (National Center for Advancing Translational Sciences (NCATS), 2021).
# Sequences of proteins named here, by UniProt entry; tags and fusion partners are left off. A change or cut given only in a name is not applied to a line headed by its entry.
# UniProt P18054: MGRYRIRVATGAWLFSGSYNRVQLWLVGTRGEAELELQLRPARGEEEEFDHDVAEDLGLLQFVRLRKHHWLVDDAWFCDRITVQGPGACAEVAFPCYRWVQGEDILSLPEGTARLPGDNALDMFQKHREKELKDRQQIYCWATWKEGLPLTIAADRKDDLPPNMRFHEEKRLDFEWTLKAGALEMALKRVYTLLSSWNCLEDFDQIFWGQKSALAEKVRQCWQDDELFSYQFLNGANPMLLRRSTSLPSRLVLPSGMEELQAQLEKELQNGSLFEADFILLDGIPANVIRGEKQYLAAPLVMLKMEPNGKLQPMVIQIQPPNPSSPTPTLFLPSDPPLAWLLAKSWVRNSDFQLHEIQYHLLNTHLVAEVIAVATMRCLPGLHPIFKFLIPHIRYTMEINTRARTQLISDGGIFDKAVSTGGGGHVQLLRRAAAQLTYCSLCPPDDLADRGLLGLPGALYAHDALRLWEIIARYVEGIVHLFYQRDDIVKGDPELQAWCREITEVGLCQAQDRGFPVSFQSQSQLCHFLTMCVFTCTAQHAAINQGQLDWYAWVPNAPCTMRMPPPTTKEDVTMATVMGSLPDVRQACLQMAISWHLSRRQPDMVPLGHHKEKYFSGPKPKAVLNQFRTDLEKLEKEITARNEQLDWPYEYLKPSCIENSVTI
# In all, about 580,000 compounds went through this assay and about 6,100 (1.1%) were called active. Inconclusive results, whose numbers are uncertain, are shown with a selection of clear calls. Calls follow the shape of the dose curve; as a rule, active = well fitted inhibition curve with a large enough effect; inconclusive = small, poorly fitted or top-dose-only effect, or another doubt; inactive = no such curve, though single readings can be large or run the other way. Potencies beside an inconclusive call are fits to weak or partial responses and may not hold up.
# Molecular target: Polyunsaturated fatty acid lipoxygenase ALOX12 (Homo sapiens) (UniProt P18054)
# Assay: Primary qHTS assay for inhibitors of human arachidonate 12S-lipoxygenase (ALOX12): Round 2
# Settings: purified 12hLO, xylenol orange hydroperoxide absorbance; activity change, negative = inhibition: at 108 µM (top of the series) unless noted
# Method in brief: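 Hydroperoxide product was detected by ferrous iron/xylenol orange as the 573 to 405 nm absorbance ratio. Arachidonic acid at 40 uM (final) was turned over for 30 min at room temperature by 150 nM human 12hLO, pH 7.0 Hepes buffer, after 15 min compound preincubation.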
# % is scaled to controls: 0 for no effect and ±100 for the full control effect; potency is read from the fitted curve at half-maximal effect.
SMILES,"activity change, negative = inhibition",Potency
N#Cc1cc([N+](=O)[O-])ccc1N1CCN(c2ccccc2O)CC1,inactive: -12.7%,
Cc1ccc(C2CC(=O)N3CN(Cc4ccco4)CSC3=C2C#N)cc1 (stereo not drawn),,active: 6.31 µM
S=C(NCCc1ccccc1)Nc1ccc(Cl)cc1Cl,,"inconclusive: 44.7 µM [inhibitor, partial curve, poor fit]"
CCCCCn1nc(C(=O)N2CCSCC2)c2ccccc2c1=O,,"inconclusive: 79.4 µM [inhibitor, partial curve, poor fit]"
COc1ccc(C(=O)NC(Cc2ccc(OC(=O)c3ccc(OC)cc3)cc2)C(=O)O)cc1 (stereo not drawn),,"inconclusive: 50.1 µM [inhibitor, partial curve, poor fit]"
CC1(C)C2CCC1(C)C(OC(=O)CC(=O)O)C2 (stereo not drawn),,"inconclusive: 89.1 µM [inhibitor, partial curve, poor fit]"
CCN(CC)CCCNC(=O)c1cc2c(-c3cccc(OC)c3)nn(C)c2s1,inactive: 0%,
COc1ccc(-c2cc(C(=O)O)c3cc(C)ccc3n2)cc1OC,,"inconclusive: 44.7 µM [inhibitor, partial curve, poor fit]"
Cc1[nH]c2c(c1C(=O)NC1CC(c3nnc(CN(C)C)n3C)C1)C(=O)CCC2 (stereo not drawn),,"inconclusive: 1.78 µM [inhibitor, full curve, poor fit]"
COc1cc(Cn2c3ccc(NC(=O)CCc4ccc(O)cc4)cc3c(=O)n2C)ccc1F,,"inconclusive: 56.2 µM [inhibitor, partial curve, poor fit]"
O=C(Nc1ccc(S(=O)(=O)Nc2nccs2)cc1)c1nn(-c2ccccc2)ccc1=O,inactive: 10.9%,
CNc1nc2cnc(Nc3cccc(C(F)(F)F)c3)cc2n1Cc1ccc(OC)c(OC)c1,,"inconclusive: 89.1 µM [inhibitor, single point]"
COc1ccc(C(=O)NC(=S)Nc2ccc(CN3CCOCC3)cc2)cc1Br,,"inconclusive: 39.8 µM [inhibitor, partial curve]"
CCC(C)C(CO)NCCCn1cnc2c(OCc3ccccc3)ncnc21 (stereo not drawn),inactive: 35.5%,
COc1ccc(CNC(C)CCc2ccccc2)cc1 (stereo not drawn),,"inconclusive: 89.1 µM [inhibitor, partial curve, poor fit]"
CCN(CC)c1ccc(NC(=O)c2cc3cc(F)ccc3[nH]2)cc1,,"inconclusive: 141 µM [inhibitor, partial curve, poor fit]"
CC1CCCCN1C(=O)CSc1nc(C2CC2)nc2c1cnn2-c1ccccc1 (stereo not drawn),,"inconclusive: 0.282 µM [inhibitor, full curve, poor fit]"
CN(C)CCN(Cc1ccccc1)C(=O)[C@H](Cc1ccccc1)N1C(=O)c2ccccc2C1=O,,"inconclusive: 44.7 µM [inhibitor, single point]"

# Already shown: 2 of the compounds above.
SMILES,"activity change, negative = inhibition",Potency
COc1ccc(-c2cc(C(=O)O)c3cc(C)ccc3n2)cc1OC,,"inconclusive: 44.7 µM [inhibitor, partial curve, poor fit]"
Cc1[nH]c2c(c1C(=O)NC1CC(c3nnc(CN(C)C)n3C)C1)C(=O)CCC2 (stereo not drawn),,"inconclusive: 1.78 µM [inhibitor, full curve, poor fit]"
